Data: the supplement of paper PMC7661543
± gives the standard deviation of the averaged measurements. The effect of the compound repeats well; differences between the knockouts mostly do not.

Test system: HCC-38
Assay: relative cell number vs DMSO control (72 h) (% of DMSO); higher = less growth inhibition (more cells)
Description: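 QMAP-Seq: a pool of 5 breast cancer cell lines (ZR-75-1, SKBR3, HCC-38, MDA-MB-231, BT-20), each carrying 12 doxycycline-inducible Cas9 sgRNA perturbations (11 knockouts plus non-targeting sgNT), was treated with compounds for 72 h at four 10-fold doses (10 nM-10 uM or 1 nM-1 uM range). Barcodes were amplified and sequenced, and cell number was interpolated from 293T spike-in standard curves. The result is expressed as % of the median of DMSO wells. Two biological replicates.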

CC(C)c1cc(-c2n[nH]c(=O)n2-c2ccc3c(ccn3C)c2)c(O)cc1O [Ganetespib]
Settings	relative cell number
sgRNA knockout: sgATF3, 1 nM	89.1 ± 9
sgRNA knockout: sgATF3, 10 nM	97 ± 6.6
sgRNA knockout: sgATF3, 100 nM	27.4 ± 2.3
sgRNA knockout: sgATF3, 1000 nM	21.1 ± 3
sgRNA knockout: sgATF4, 1 nM	90.02 ± 0.73
sgRNA knockout: sgATF4, 10 nM	107 ± 2.5
sgRNA knockout: sgATF4, 100 nM	23.4 ± 4.5
sgRNA knockout: sgATF4, 1000 nM	23.9 ± 0.27
sgRNA knockout: sgATF6, 1 nM	98.5 ± 32
sgRNA knockout: sgATF6, 10 nM	103 ± 6.7
sgRNA knockout: sgATF6, 100 nM	27.1 ± 1.2
sgRNA knockout: sgATF6, 1000 nM	24.3 ± 2.1
sgRNA knockout: sgATG7, 1 nM	93.5 ± 14
sgRNA knockout: sgATG7, 10 nM	101 ± 9.1
sgRNA knockout: sgATG7, 100 nM	23.1 ± 0.71
sgRNA knockout: sgATG7, 1000 nM	23.4 ± 1.1
sgRNA knockout: sgERN1, 1 nM	88.3 ± 4.2
sgRNA knockout: sgERN1, 10 nM	95.4 ± 11
sgRNA knockout: sgERN1, 100 nM	22.6 ± 4.7
sgRNA knockout: sgERN1, 1000 nM	21.3 ± 10
sgRNA knockout: sgHSF1, 1 nM	90.6 ± 18
sgRNA knockout: sgHSF1, 10 nM	76.9 ± 12
sgRNA knockout: sgHSF1, 100 nM	18.7 ± 1.1
sgRNA knockout: sgHSF1, 1000 nM	15.1 ± 8.4
sgRNA knockout: sgHSF2, 1 nM	96.5 ± 16
sgRNA knockout: sgHSF2, 10 nM	97.8 ± 4
sgRNA knockout: sgHSF2, 100 nM	25.5 ± 5.6
sgRNA knockout: sgHSF2, 1000 nM	22.5 ± 5.5
sgRNA knockout: sgKEAP1, 1 nM	97 ± 14
sgRNA knockout: sgKEAP1, 10 nM	102 ± 4.4
sgRNA knockout: sgKEAP1, 100 nM	24.8 ± 0.65
sgRNA knockout: sgKEAP1, 1000 nM	21.7 ± 2.7
sgRNA knockout: sgNFE2L2, 1 nM	88.2 ± 10
sgRNA knockout: sgNFE2L2, 10 nM	93.5 ± 3.7
sgRNA knockout: sgNFE2L2, 100 nM	23.6 ± 2.7
sgRNA knockout: sgNFE2L2, 1000 nM	20.1 ± 2.7
sgRNA knockout: sgSLC35F2, 1 nM	84.9 ± 4.5
sgRNA knockout: sgSLC35F2, 10 nM	87.4 ± 14
sgRNA knockout: sgSLC35F2, 100 nM	23.6 ± 1.2
sgRNA knockout: sgSLC35F2, 1000 nM	23.5 ± 5.6
sgRNA knockout: sgXBP1, 1 nM	97.8 ± 19
sgRNA knockout: sgXBP1, 10 nM	103 ± 9.5
sgRNA knockout: sgXBP1, 100 nM	24.9 ± 3.2
sgRNA knockout: sgXBP1, 1000 nM	22.8 ± 2.5

N#Cc1ccc(C(c2ccc(C#N)cc2)n2cncn2)cc1 [Letrozole]
Settings	relative cell number
sgRNA knockout: sgATF3, 1 nM	99.5 ± 4.7
sgRNA knockout: sgATF3, 10 nM	94.3 ± 17
sgRNA knockout: sgATF3, 100 nM	106 ± 1.9
sgRNA knockout: sgATF3, 1000 nM	97 ± 2.9
sgRNA knockout: sgATF4, 1 nM	97.6 ± 2
sgRNA knockout: sgATF4, 10 nM	118 ± 15
sgRNA knockout: sgATF4, 100 nM	114 ± 21
sgRNA knockout: sgATF4, 1000 nM	86.3 ± 5.3
sgRNA knockout: sgATF6, 1 nM	91 ± 12
sgRNA knockout: sgATF6, 10 nM	90.9 ± 6.6
sgRNA knockout: sgATF6, 100 nM	134 ± 18
sgRNA knockout: sgATF6, 1000 nM	107 ± 2.9
sgRNA knockout: sgATG7, 1 nM	92.9 ± 15
sgRNA knockout: sgATG7, 10 nM	103 ± 1.6
sgRNA knockout: sgATG7, 100 nM	109 ± 2.8
sgRNA knockout: sgATG7, 1000 nM	97.1 ± 8.9
sgRNA knockout: sgERN1, 1 nM	101 ± 9.6
sgRNA knockout: sgERN1, 10 nM	100 ± 3.8
sgRNA knockout: sgERN1, 100 nM	107 ± 6.7
sgRNA knockout: sgERN1, 1000 nM	99.3 ± 1.7
sgRNA knockout: sgHSF1, 1 nM	108 ± 36
sgRNA knockout: sgHSF1, 10 nM	89.3 ± 25
sgRNA knockout: sgHSF1, 100 nM	106 ± 12
sgRNA knockout: sgHSF1, 1000 nM	108 ± 5.6
sgRNA knockout: sgHSF2, 1 nM	107 ± 5.1
sgRNA knockout: sgHSF2, 10 nM	95.9 ± 5.3
sgRNA knockout: sgHSF2, 100 nM	122 ± 14
sgRNA knockout: sgHSF2, 1000 nM	94.4 ± 5.3
sgRNA knockout: sgKEAP1, 1 nM	110 ± 19
sgRNA knockout: sgKEAP1, 10 nM	95.9 ± 6
sgRNA knockout: sgKEAP1, 100 nM	95.6 ± 11
sgRNA knockout: sgKEAP1, 1000 nM	101 ± 3.1
sgRNA knockout: sgNFE2L2, 1 nM	90.6 ± 3.8
sgRNA knockout: sgNFE2L2, 10 nM	105 ± 22
sgRNA knockout: sgNFE2L2, 100 nM	118 ± 13
sgRNA knockout: sgNFE2L2, 1000 nM	88.7 ± 12
sgRNA knockout: sgSLC35F2, 1 nM	97.1 ± 10
sgRNA knockout: sgSLC35F2, 10 nM	113 ± 9.7
sgRNA knockout: sgSLC35F2, 100 nM	115 ± 9.3
sgRNA knockout: sgSLC35F2, 1000 nM	102 ± 2.6
sgRNA knockout: sgXBP1, 1 nM	97.6 ± 4
sgRNA knockout: sgXBP1, 10 nM	101.3 ± 0.61
sgRNA knockout: sgXBP1, 100 nM	119 ± 17
sgRNA knockout: sgXBP1, 1000 nM	89.6 ± 4.5

CC[C@H](Nc1ncnc2[nH]cnc12)c1nc2cccc(F)c2c(=O)n1-c1ccccc1 [CAL101]
Settings	relative cell number
sgRNA knockout: sgATF3, 10 nM	98.6 ± 2
sgRNA knockout: sgATF3, 100 nM	85.9 ± 16
sgRNA knockout: sgATF3, 1000 nM	93.6 ± 21
sgRNA knockout: sgATF3, 10000 nM	83.9 ± 24
sgRNA knockout: sgATF4, 10 nM	92.8 ± 16
sgRNA knockout: sgATF4, 100 nM	88.5 ± 26
sgRNA knockout: sgATF4, 1000 nM	88.6 ± 21
sgRNA knockout: sgATF4, 10000 nM	75 ± 17
sgRNA knockout: sgATF6, 10 nM	108 ± 8.2
sgRNA knockout: sgATF6, 100 nM	85.5 ± 9
sgRNA knockout: sgATF6, 1000 nM	98.6 ± 4
sgRNA knockout: sgATF6, 10000 nM	93.8 ± 21
sgRNA knockout: sgATG7, 10 nM	83.5 ± 11
sgRNA knockout: sgATG7, 100 nM	102 ± 27
sgRNA knockout: sgATG7, 1000 nM	91.3 ± 17
sgRNA knockout: sgATG7, 10000 nM	84.1 ± 28
sgRNA knockout: sgERN1, 10 nM	88.3 ± 21
sgRNA knockout: sgERN1, 100 nM	92.7 ± 18
sgRNA knockout: sgERN1, 1000 nM	94.3 ± 18
sgRNA knockout: sgERN1, 10000 nM	80.5 ± 22
sgRNA knockout: sgHSF1, 10 nM	97.7 ± 1.9
sgRNA knockout: sgHSF1, 100 nM	72.2 ± 7.3
sgRNA knockout: sgHSF1, 1000 nM	99.2 ± 7.7
sgRNA knockout: sgHSF1, 10000 nM	115 ± 37
sgRNA knockout: sgHSF2, 10 nM	99.9 ± 2.8
sgRNA knockout: sgHSF2, 100 nM	94.7 ± 16
sgRNA knockout: sgHSF2, 1000 nM	95.62 ± 0.4
sgRNA knockout: sgHSF2, 10000 nM	105 ± 31
sgRNA knockout: sgKEAP1, 10 nM	96.3 ± 8.9
sgRNA knockout: sgKEAP1, 100 nM	88.5 ± 8.5
sgRNA knockout: sgKEAP1, 1000 nM	106 ± 11
sgRNA knockout: sgKEAP1, 10000 nM	94.5 ± 25
sgRNA knockout: sgNFE2L2, 10 nM	89 ± 13
sgRNA knockout: sgNFE2L2, 100 nM	91.1 ± 18
sgRNA knockout: sgNFE2L2, 1000 nM	87.3 ± 31
sgRNA knockout: sgNFE2L2, 10000 nM	81.1 ± 28
sgRNA knockout: sgSLC35F2, 10 nM	89 ± 12
sgRNA knockout: sgSLC35F2, 100 nM	100 ± 13
sgRNA knockout: sgSLC35F2, 1000 nM	93.9 ± 17
sgRNA knockout: sgSLC35F2, 10000 nM	84.2 ± 21
sgRNA knockout: sgXBP1, 10 nM	91 ± 5.9
sgRNA knockout: sgXBP1, 100 nM	91.9 ± 20
sgRNA knockout: sgXBP1, 1000 nM	96.7 ± 29
sgRNA knockout: sgXBP1, 10000 nM	94.6 ± 32
